Reference: patent KR20130140557A
No constants are given. Whether binding was seen depends on the method and setting. Some entries that bind do so weakly or less than the wild type. Values belong to the binder of their own block, whether it stands above or below them.

Chains of the proteins cited; added tags and fusions are not shown. Residues count along the entry.
UniProt P08887, residues 20-365: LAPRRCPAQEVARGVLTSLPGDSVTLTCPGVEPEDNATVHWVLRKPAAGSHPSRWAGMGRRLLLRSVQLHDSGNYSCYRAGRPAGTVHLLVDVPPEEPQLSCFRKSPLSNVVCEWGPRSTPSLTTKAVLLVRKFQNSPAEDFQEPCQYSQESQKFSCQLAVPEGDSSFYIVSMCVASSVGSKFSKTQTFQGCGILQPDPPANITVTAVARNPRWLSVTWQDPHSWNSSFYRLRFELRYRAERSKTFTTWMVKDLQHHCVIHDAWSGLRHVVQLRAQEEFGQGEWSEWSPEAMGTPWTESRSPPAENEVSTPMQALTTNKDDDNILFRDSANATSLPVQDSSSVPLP

Target: IL-6R-Fc 항원 (IL-6R full domain 단백질) (human) (UniProt P08887)
Assay: ELISA titration on coated IL-6R

binding: binds
B1: 항 IL-6R 단클론 항체 A7 (IgG) (antibody, V domains shown)
VH: QMQLVESGGGLVQPGTSLRLSCAASGFKFEDYAMHWVRQAPGKGLEWVSGVSWNSGTIAYVDSVKGRFTISRDNAKNSLYLQMNSLRAEDTAVYYCARDFTYFYESSGYYAFDLWGQGTMVTVSS
VL: SQLVLTQPPSVSGAPGQRVTISCTGTNSNIGAGYDVHWYQQVPGTTPKLLIYGNTNRPSGVPDRFSGSKSGTSASLAITGLQAEDGGDYYCQSFDSSLTGSVFGTGTKVTVL

binding: binds
B2: 항 IL-6R 단클론 항체 F2 (IgG) (antibody, V domains shown)
VH: QVQLVESGAEVKKPGASVKVSCKASGYTFTNYYMHWVRQAPGQGLEWMGIINPSGGNTGYAQKFQGRVTMTRDMSTSTAYMELSSLRSEDTAVYYCARGLPWGENGLDVWGQGTTVTVSS
VL: SQLVLTQPSSVSGAPGQTVTISCTGSSSNIGAGYDVHWYQQLPGTAPKVLIYGDSDRPSGVPDRFSGSKSATSASLAITGLQAEDEADYYCQSYDSSLSAYVFGTGTKVTVL
